Experimental data taken from the supplement of paper PMC10727501.
The other results are listed elsewhere or left out. This data set is noisy: repeats of one test often differ as much as different tests do.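 Researchers measured free-swimming zebrafish larvae's O-bend response probability to dark flashes (naive: first five; training: remaining flashes of four 60-flash blocks; test: later 60-flash block) and OMR turning toward alternating leftward/rightward LED motion. Six treated larvae were compared to sixty 0.1% DMSO controls, with |SSMD|≥2 marking a hit.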

Experiments:
Details in all cases: 10 µM; pre-incubation: 30-90 min
[1] = test system: Danio rerio larvae (5 dpf, TLF); experiment: OMR-Perf (SSMD vs DMSO vehicle); higher = higher than vehicle (e.g. higher dark-flash O-bend response probability, or better optomotor performance)
[2] = test system: Danio rerio larvae (5 dpf, TLF); experiment: Prob-Test (SSMD vs DMSO vehicle); higher = higher than vehicle (e.g. higher dark-flash O-bend response probability, or better optomotor performance)
[3] = test system: Danio rerio larvae (5 dpf, TLF); experiment: Prob-Naive (SSMD vs DMSO vehicle); higher = higher than vehicle (e.g. higher dark-flash O-bend response probability, or better optomotor performance)
[4] = test system: Danio rerio larvae (5 dpf, TLF); experiment: Prob-Train (SSMD vs DMSO vehicle); higher = higher than vehicle (e.g. higher dark-flash O-bend response probability, or better optomotor performance)

| Structure (SMILES) | OMR-Perf [1] | Prob-Test [2] | Prob-Naive [3] | Prob-Train [4] |
| --- | --- | --- | --- | --- |
| O=C(NNc1ccccc1)c1ccncc1 | 0.765 | 0.547 | 0.118 | 0.639 |
| CC(=O)OCC(=O)[C@@]1(O)CC[C@H]2[C@@H]3CCC4=CC(=O)C=C[C@]4(C)[C@@]3(Cl)[C@@H](Cl)C[C@@]21C [Dichlorisone Acetate] | 0.564 | 0.224 | 0.444 | -0.43 |
| CC1=C(C(=O)Nc2cc3cn[nH]c3cc2F)C(c2ccc(C(F)(F)F)cc2)CC(=O)N1 (stereo not drawn) | -0.327 | 0.00128 | -0.043 | -0.668 |
| Cl.O=C(O)c1cn(-c2ccc(F)cc2)c2cc(N3CCNCC3)c(F)cc2c1=O [Sarafloxacin HCl] | -0.781 | -0.0351 | 0 | -0.0459 |
| Cl.Cl.O=S(=O)(NCCNC/C=C/c1ccc(Br)cc1)c1cccc2cnccc12 | 0.244 | -0.895 | 0.313 | -0.63 |
| CCN(CC)CCOC(=O)C(c1ccccc1)c1ccccc1.Cl [Adiphenine HCl] | -0.39 | -0.248 | -0.819 | -0.49 |
| COc1ccc(CC2c3cc(OC)c(OC)cc3CC[N+]2(C)CCC(=O)OCCCCCOC(=O)CC[N+]2(C)CCc3cc(OC)c(OC)cc3C2Cc2ccc(OC)c(OC)c2)cc1OC.O=S(=O)([O-])c1ccccc1.O=S(=O)([O-])c1ccccc1 (stereo not drawn) [Atracurium Besylate] | -0.221 | -0.469 | -0.193 | -0.604 |
| C#CCC(Cc1cnc2nc(N)nc(N)c2n1)c1ccc(C(=O)N[C@@H](CCC(=O)O)C(=O)O)cc1 (stereo partly drawn) [Pralatrexate] | -0.244 | -0.457 | 0.0846 | -0.0649 |
| CCOC(=O)CCC(=O)O[C@H]1[C@H](O[C@@H]2[C@@H](C)[C@H](O[C@H]3C[C@@](C)(OC)[C@@H](O)[C@H](C)O3)[C@@H](C)C(=O)O[C@@H](CC)[C@@](C)(O)[C@H](O)[C@@H](C)C(=O)[C@H](C)C[C@@]2(C)O)O[C@H](C)C[C@@H]1N(C)C [Erythromycin Ethylsuccinate] | -0.393 | -0.316 | -0.3 | -0.413 |
| N[C@@]1(C(=O)O)CS(=O)(=O)[C@H]2[C@H](C(=O)O)[C@H]21 | 0.305 | 0.0325 | -0.758 | -0.342 |
| COC[C@H](NC(=O)c1cnc(C)s1)C(=O)N[C@@H](COC)C(=O)N[C@@H](Cc1ccccc1)C(=O)C1(C)CO1 (stereo partly drawn) [Oprozomib (ONX 0912)] | -0.0535 | -0.534 | -0.117 | -0.185 |
| CCCc1cc(C)[nH]c(=O)c1CNC(=O)c1cc(-c2ccnc(N3CCN(C)CC3)c2)cc2c1cnn2C(C)C | -0.491 | -0.474 | 0.146 | -0.281 |
| O=c1c(O)c(-c2ccc(O)c(O)c2)oc2cc(O)ccc12 [Fisetin] | 0.0772 | 0.566 | 0.0956 | 0.344 |
| CCOC(CN1CCN(CC(C)C(=O)c2ccccc2)CC1)c1ccccc1.Cl.Cl (stereo not drawn) [Eprazinone 2HCl] | -0.518 | -1.39 | 0.00488 | -0.539 |
| CCC(=O)c1c(O)cc(O)cc1O [Flopropione] | -0.25 | -0.377 | -0.271 | -0.583 |
| CCOC(=O)C(C)(C)Oc1ccc(Cl)cc1 [Clofibrate (Atromid-S)] | -0.968 | -0.282 | -0.818 | -2.64 |
| Nc1nccs1 [Aminothiazole] | 0.312 | 0.0116 | 0.506 | -0.118 |
| Cl.Fc1ccc([C@@H]2CCNC[C@H]2COc2ccc3c(c2)OCO3)cc1 [Paroxetine HCl] | -0.0116 | -0.277 | 0.389 | -1.28 |
| CCCCOc1ccc(C(=O)Nc2ccc(F)cc2F)cc1 | -0.0246 | -0.925 | -1.32 | -1.81 |
| C#Cc1cccc(Nc2ncnc3cc(OC)c(OCCCCCCC(=O)NO)cc23)c1 | -0.116 | -0.175 | -0.262 | 0.074 |
| CO[C@H]1/C=C/O[C@@]2(C)Oc3c(C)c(O)c4c(c3C2=O)C2=NC3(CCN(CC(C)C)CC3)NC2=C(NC(=O)/C(C)=C/C=C/[C@H](C)[C@H](O)[C@@H](C)[C@@H](O)[C@@H](C)[C@H](OC(C)=O)[C@@H]1C)C4=O [Rifabutin] | 0.164 | 0.0299 | -0.423 | 0.921 |
| CC(C)(CO)c1cc2cc(NC(=O)C3(c4ccc5c(c4)OC(F)(F)O5)CC3)c(F)cc2n1C[C@@H](O)CO | -0.616 | 0.463 | 0.0404 | 0.439 |

A different layout for two compounds above:
CC1=C(C(=O)Nc2cc3cn[nH]c3cc2F)C(c2ccc(C(F)(F)F)cc2)CC(=O)N1 (stereo not drawn)
  OMR-Perf [1]: -0.327; Prob-Test [2]: 0.00128; Prob-Naive [3]: -0.043; Prob-Train [4]: -0.668
Cl.O=C(O)c1cn(-c2ccc(F)cc2)c2cc(N3CCNCC3)c(F)cc2c1=O [Sarafloxacin HCl]
  OMR-Perf [1]: -0.781; Prob-Test [2]: -0.0351; Prob-Naive [3]: 0; Prob-Train [4]: -0.0459
